The results in this text go back to publication PMC2997501, “Different Residues on the Surface of the Methanothermobacter thermautotrophicus MCM Helicase Interact with Single- and Double-Stranded DNA” (Archaea, 2010).

Holding throughout (assay): filter binding
Common to all, as to details: 10 mM Mg2+, no ATP; 25 mM Hepes-NaOH pH 7.5, 2 mM DTT, 10 mM MgCl2, 100 ug/ml BSA, 50 fmol 32P-DNA in 20 ul, 10/30/90 nM MCM monomer (25 nM for the ATP test), 60 C, 10 min; recombinant protein; residues 1-666; protein details: C-terminal His6; label: 32P (T4 PNK, 5' end)

The target of data set [1] is T1, MCM V214A (Methanothermobacter thermautotrophicus) (UniProt O27798).
T1 sequence (looked up): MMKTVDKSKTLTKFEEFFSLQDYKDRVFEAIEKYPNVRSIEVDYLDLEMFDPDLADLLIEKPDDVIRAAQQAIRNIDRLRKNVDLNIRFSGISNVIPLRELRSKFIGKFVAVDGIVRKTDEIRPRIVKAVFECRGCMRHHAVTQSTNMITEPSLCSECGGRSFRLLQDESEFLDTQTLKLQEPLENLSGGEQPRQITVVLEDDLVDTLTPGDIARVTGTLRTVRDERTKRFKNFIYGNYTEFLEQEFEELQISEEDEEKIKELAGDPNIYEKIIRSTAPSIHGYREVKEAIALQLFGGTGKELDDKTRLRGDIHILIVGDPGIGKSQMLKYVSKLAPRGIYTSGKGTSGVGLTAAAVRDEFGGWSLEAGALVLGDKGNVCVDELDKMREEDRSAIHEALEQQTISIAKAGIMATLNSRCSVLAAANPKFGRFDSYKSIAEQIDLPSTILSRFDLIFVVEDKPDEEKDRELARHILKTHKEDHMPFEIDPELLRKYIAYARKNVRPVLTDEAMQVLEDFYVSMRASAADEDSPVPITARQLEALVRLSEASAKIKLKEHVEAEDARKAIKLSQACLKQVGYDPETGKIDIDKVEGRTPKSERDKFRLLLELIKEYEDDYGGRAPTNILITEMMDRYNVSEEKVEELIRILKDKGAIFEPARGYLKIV

In data set [2] the target is T2, MCM wild-type (Methanothermobacter thermautotrophicus) (UniProt O27798).
T2 sequence (looked up): T1 sequence (looked up) with A214V

The target in data set [3] is T3, MCM D212N (Methanothermobacter thermautotrophicus) (UniProt O27798).
T3 sequence (looked up): T1 sequence (looked up) with D212N, A214V

Data set [4] has as its target T4, MCM PG210,211GA P210G,G211A (Methanothermobacter thermautotrophicus) (UniProt O27798).
T4 sequence (looked up): T1 sequence (looked up) with P210G, G211A, A214V

Residue numbers refer to the chain shown, from its start. The exact form of at least one protein or probe is not confirmed. For some of these results: Weaker means in comparison with the reference protein, sequence or condition of that experiment. At least one verdict rests on a figure or table, not on a statement of the authors. Where a protein sequence is shown, tags need not be part of it.

Turning to “GCAGATAACAGTTGTCCTGGAGAACGACCTGGTTGACACCCTCACACCC (double strand) [49-mer dsDNA]”, the binding result is recorded as “binds more weakly” in data set [1], “binds” in data set [2], “binds more weakly” in data set [3] and “binds more weakly” in data set [4].
